No constants are given. Whether binding was seen depends on the method and setting. In cells and extracts the contact can be indirect. Some binding calls cover weakened binding; strength is not graded here. Tags and fused reporters may be left off the sequences shown.

For test [1], the target named is T1, HA-tagged Whi5 (S. cerevisiae) (UniProt Q12416).
T1 sequence: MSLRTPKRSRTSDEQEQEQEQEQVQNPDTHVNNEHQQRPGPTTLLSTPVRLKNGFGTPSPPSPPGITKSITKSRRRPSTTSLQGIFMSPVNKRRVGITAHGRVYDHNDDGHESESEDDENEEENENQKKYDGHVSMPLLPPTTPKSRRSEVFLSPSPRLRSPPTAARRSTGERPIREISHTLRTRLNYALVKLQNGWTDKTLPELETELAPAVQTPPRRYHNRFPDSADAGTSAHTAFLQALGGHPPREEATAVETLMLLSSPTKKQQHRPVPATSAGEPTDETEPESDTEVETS
The test is described as follows: co-IP; HA-tagged Whi7 or Whi5 immunoprecipitated from yeast crude extracts with HA-probe (F-7) antibody on Dynabeads Protein G, 20 min at room temperature; 50 mM Tris-HCl pH 8, 250 mM NaCl, 5 mM EDTA, 0.1% Triton X-100; western blot of input, unbound and immunoprecipitated fractions; for Grr1ΔF-flag cells were grown on raffinose and transferred to galactose for 4 h. (In western blotting, separated proteins are transferred to a membrane and probed.)

Test [2] has as its target T2, HA-tagged wild-type Whi7 (plasmid pWHI7) (S. cerevisiae) (UniProt P36167).
T2 sequence: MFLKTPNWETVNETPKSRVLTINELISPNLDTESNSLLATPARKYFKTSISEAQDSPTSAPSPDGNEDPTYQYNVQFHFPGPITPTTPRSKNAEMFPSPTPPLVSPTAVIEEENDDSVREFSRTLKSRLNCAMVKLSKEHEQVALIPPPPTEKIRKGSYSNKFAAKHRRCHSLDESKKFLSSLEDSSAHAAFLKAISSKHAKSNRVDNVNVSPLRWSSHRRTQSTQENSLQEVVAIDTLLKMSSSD
The description is as above.

B1: myc-tagged Swi4 (protein, UniProt P25302 1-1093)
chain: MPFDVLISNQKDNTNHQNITPISKSVLLAPHSNHPVIEIATYSETDVYECYIRGFETKIVMRRTKDDWINITQVFKIAQFSKTKRTKILEKESNDMQHEKVQGGYGRFQGTWIPLDSAKFLVNKYEIIDPVVNSILTFQFDPNNPPPKRSKNSILRKTSPGTKITSPSSYNKTPRKKNSSSSTSATTTAANKKGKKNASINQPNPSPLQNLVFQTPQQFQVNSSMNIMNNNDNHTTMNFNNDTRHNLINNISNNSNQSTIIQQQKSIHENSFNNNYSATQKPLQFFPIPTNLQNKNVALNNPNNNDSNSYSHNIDNVINSSNNNNNGNNNNLIIVPDGPMQSQQQQQHHHEYLTNNFNHSMMDSITNGNSKKRRKKLNQSNEQQFYNQQEKIQRHFKLMKQPLLWQSFQNPNDHHNEYCDSNGSNNNNNTVASNGSSIEVFSSNENDNSMNMSSRSMTPFSAGNTSSQNKLENKMTDQEYKQTILTILSSERSSDVDQALLATLYPAPKNFNINFEIDDQGHTPLHWATAMANIPLIKMLITLNANALQCNKLGFNCITKSIFYNNCYKENAFDEIISILKICLITPDVNGRLPFHYLIELSVNKSKNPMIIKSYMDSIILSLGQQDYNLLKICLNYQDNIGNTPLHLSALNLNFEVYNRLVYLGASTDILNLDNESPASIMNKFNTPAGGSNSRNNNTKADRKLARNLPQKNYYQQQQQQQQPQNNVKIPKIIKTQHPDKEDSTADVNIAKTDSEVNESQYLHSNQPNSTNMNTIMEDLSNINSFVTSSVIKDIKSTPSKILENSPILYRRRSQSISDEKEKAKDNENQVEKKKDPLNSVKTAMPSLESPSSLLPIQMSPLGKYSKPLSQQINKLNTKVSSLQRIMGEEIKNLDNEVVETESSISNNKKRLITIAHQIEDAFDSVSNKTPINSISDLQSRIKETSSKLNSEKQNFIQSLEKSQALKLATIVQDEESKVDMNTNSSSHPEKQEDEEPIPKSTSETSSPKNTKADAKFSNTVQESYDVNETLRLATELTILQFKRRMTTLKISEAKSKINSSVKLDKYRNLIGITIENIDSKLDDIEKDLRANA
With B1, the binding entry in test [1] and in test [2] was “binds” throughout.

B2: myc-tagged Swi6 (protein, UniProt P09959 1-803)
chain: MALEEVVRYLGPHNEIPLTLTRDSETGHFLLKHFLPILQQYHDTGNINETNPDSFPTDEERNKLLAHYGIAVNTDDRGELWIELEKCLQLLNMLNLFGLFQDAFEFEEPETDQDEEDPSHSKLPENKTKSENSKDNISSKRINNLQDMSLDSDAHRELGSPLKKLKIDTSVIDAESDSTPNTARGKPNDDINKGPSGDNENNGTDDNDRTAGPIITFTHDLTSDFLSSPLKIMKALPSPVVNDNEQKMKLEAFLQRLLFPEIQEMPTSLNNDSSNRNSEGGSSNQQQQHVSFDSLLQEVNDAFPNTQLNLNIPVDEHGNTPLHWLTSIANLELVKHLVKHGSNRLYGDNMGESCLVKAVKSVNNYDSGTFEALLDYLYPCLILEDSMNRTILHHIIITSGMTGCSAAAKYYLDILMGWIVKKQNRPIQSGTNEKESKPNDKNGERKDSILENLDLKWIIANMLNAQDSNGDTCLNIAARLGNISIVDALLDYGADPFIANKSGLRPVDFGAGTSKLQNTNGGDENSKMVSKGDYDGQKNGKAKKIRSQLLKNPPETTSLINDVQNLLNSISKDYENETVQYNEKLEKLHKELNEQREELANSREQLANVKQLKDEYSLMQEQLTNLKAGIEEEEESFREESKKLGIIADESSGIDWDSSEYDADEPFKVEFLSDFLEDKLQKNYEGDISKLLEAESKEQIMEQIRNQLPAEKIQSMLPPTVLLKARINAYKRNDKHLTNVLDTISTKQSELENKFRRVLSLCLKIDENKVDNMLDGLLQAISSEDPQDIDTDEMQDFLKKHAS
With B2, the binding entry in test [1] and in test [2] was “binds” throughout.

For the origin of these results see paper PMC5571219.
